PubChem BioAssay AID1259254 – NCATS – 2017
In all, the deposit lists about 59,000 reagents; this is a part drawn at random. In the full data, about 1,550 (2.6%) got an active call. 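G2 share is only a proxy for re-replication; each gene was hit by three separate siRNAs, and active genes were retested.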 Raw values are not corrected between plates. Entries without a mark were called inactive. No sequences are given here. The record does not give: the amount of reagent.

- Assay: 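Finding genes that stop cells copying their DNA twice in one cycle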 (primary screen)
- Cell system: human HCT116 colorectal cancer cells
- Reagents: single siRNA against human genes
- Duration: 3 days
- Measured: 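Nuclei stained with Hoechst and imaged; cell-cycle phase assigned by DNA content; G2 share scaled per plate, non-targeting siRNA 0%, GMNN siRNA 100%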
- Scale: G2 robust z-score and G2 cells, % of GMNN control: higher = more G2 cells, more excess DNA replication; raw share of cells in G2: higher = larger share of cells with G2 DNA content
- Rule for the call: 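Active siRNAs have a G2 robust z of 5 or more median absolute deviations over the median, which in these data means about 38% or higher of GMNN control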

no.	Target gene	PubChem SID	G2 robust z-score	G2 cells, % of GMNN control	raw share of cells in G2 (%)
1	BOLA3	SID160766050	-0.421	0.00333	3.77
2	BOLA3	SID160766051	-0.326	0.673	3.7
3	BOLA3	SID160766052	-0.933	-3.6	3.09
4	KHDRBS1	SID160728978	-0.941	-3.65	5.04
5	KHDRBS1	SID160728979	4.94	37.8	22.1
6	KHDRBS1	SID160730463	-0.447	-0.179	3.78
7	OR5B2	SID160766431	-0.767	-2.43	2.94
8	OR5B2	SID160766432	0.143	3.98	5.13
9	OR5B2	SID160766433	2.74	22.2	14.2
10	TMEM198B	SID160767701	1.4	12.8	8.57
11	TMEM198B	SID160767702	-0.68	-1.81	2.73
12	TMEM198B	SID160767703	9.48 (active)	69.7	26.8
13	STOML2	SID160739568	-0.594	-1.21	3.33
14	STOML2	SID160739570	-0.109	2.2	5.06
15	STOML2	SID160739571	0.222	4.53	8.01
16	GCH1	SID160769920	-1.37	-6.7	2.71
17	GCH1	SID160769928	-0.674	-1.77	3.03
18	GCH1	SID160769938	0.299	5.07	7.08
19	SLC9A2	SID160716911	-0.623	-1.42	5.2
20	SLC9A2	SID160716912	-0.7	-1.96	3.88
21	SLC9A2	SID160716913	0.802	8.61	6.81
22	FCER1A	SID160764262	-0.598	-1.24	3.22
23	FCER1A	SID160764272	-1.01	-4.15	3.73
24	FCER1A	SID160764282	-1.12	-4.94	3.39
25	OR1I1	SID160756468	-0.71	-2.03	3.41
26	OR1I1	SID160756469	0.318	5.2	4.75
27	OR1I1	SID160756470	-0.147	1.94	3.28
28	NTRK3	SID160778272	-0.237	1.3	6.04
29	NTRK3	SID160778273	0.968	9.78	8.7
30	NTRK3	SID160778274	-1.11	-4.84	2.32
31	HTR1E	SID160775445	0.737	8.15	8.76
32	HTR1E	SID160775446	-0.201	1.55	5.06
33	HTR1E	SID160775447	-0.178	1.72	3.8
34	REXO1L1P	SID160762247	0.306	5.12	5.43
35	REXO1L1P	SID160762248	2.33	19.3	9.75
36	REXO1L1P	SID160762249	-0.13	2.06	3.85
37	RAD51-AS1	SID160772366	-0.242	1.27	4.41
38	RAD51-AS1	SID160772367	1.59	14.2	7.89
39	RAD51-AS1	SID160772368	-0.634	-1.49	2.53
40	FAF1	SID160729993	-0.57	-1.04	4.58
41	FAF1	SID160729994	0.779	8.45	7.62
42	FAF1	SID160729995	-0.59	-1.18	2.73
43	CD302	SID160723486	-0.896	-3.33	3.4
44	CD302	SID160723487	-0.687	-1.86	4.5
45	CD302	SID160732226	-0.106	2.22	3.96
46	SEBOX	SID160769688	1.81	15.7	12.7
47	SEBOX	SID160769689	-0.0634	2.52	5.94
48	SEBOX	SID160769690	-1.03	-4.27	2.73

A few values from the entries so far.
Value of SEBOX [SID160769688] under “raw share of cells in G2 (%)”: 12.7
Under “raw share of cells in G2 (%)”, TMEM198B [SID160767702] has 2.73
